Measured values from article PMC5509711.

Columns and labels:
[1] = target: DOG1 beta fused to the N-terminal half of YFP (Arabidopsis); assay: split reporter; BiFC in epidermis cells of Nicotiana benthamiana leaves; DOG1 fused to the N-terminal half and the phosphatases to the C-terminal half of YFP; confocal microscopy 48 h after agro-infiltration
[2] = target: GAL4 AD fusion of DOG1 (β-isoform, Cvi) (Arabidopsis (Cvi accession)); assay: two-hybrid; yeast GAL4 system, strain PJ69-4alpha; pACT2 (GAL4 AD) DOG1 with pAS2 (GAL4 BD) phosphatases; growth on -LWH with 5 mM 3-aminotriazole, 30 °C, 7 days; β-galactosidase filter assay

Binder	binding [1]	binding [2]
PDF1 fused to the C-terminal half of YFP (protein, UniProt Q38950 1-587) MSMIDEPLYPIAVLIDELKNDDIQLRLNSIRRLSTIARALGEERTRKELIPFLSENNDDDDEVLLAMAEELGVFIPYVGGVEYAHVLLPPLETLSTVEETCVREKAVESLCRVGSQMRESDLVDHFISLVKRLAAGEWFTARVSACGVFHIAYPSAPDMLKTELRSLYTQLCQDDMPMVRRAAATNLGKFAATVESAHLKTDVMSMFEDLTQDDQDSVRLLAVEGCAALGKLLEPQDCVQHILPVIVNFSQDKSWRVRYMVANQLYELCEAVGPEPTRTELVPAYVRLLRDNEAEVRIAAAGKVTKFCRILNPEIAIQHILPCVKELSSDSSQHVRSALASVIMGMAPVLGKDATIEHLLPIFLSLLKDEFPDVRLNIISKLDQVNQVIGIDLLSQSLLPAIVELAEDRHWRVRLAIIEYIPLLASQLGVGFFDDKLGALCMQWLQDKVHSIRDAAANNLKRLAEEFGPEWAMQHIVPQVLEMVNNPHYLYRMTILRAVSLLAPVMGSEITCSKLLPVVMTASKDRVPNIKFNVAKVLQSLIPIVDQSVVEKTIRPGLVELSEDPDVDVRFFANQALQSIDNVMMSS	binds	–
GAL4 BD fusion of AHG1 (enzyme, UniProt Q9FLI3 1-416) MTEIYRTISTGRGDDVSPTKCRERRRRRIEMRRQAAVFGEPSSSRNRDRTDMEVYSSFDVPLRKQARRSEIGGLPADIGGFLAPPAASSCQKSEAPVWKGEETEDEPLYGIVSVMGRSRKMEDSVTVKPNLCKPEVNRQRPVHFFAVYDGHGGSQVSTLCSTTMHTFVKEELEQNLEEEEEGSENDVVERKWRGVMKRSFKRMDEMATSTCVCGTSVPLCNCDPREAAISGSTAVTAVLTHDHIIVANTGDSRAVLCRNGMAIPLSNDHKPDRPDERARIEAAGGRVLVVDGARVEGILATSRAIGDRYLKPMVAWEPEVTFMRRESGDECLVLASDGLWDVLSSQLACDIARFCLREETPSSLDLNRMAQEDDNDGEQNPSRSVLAATLLTRLALGRQSSDNISVVVIDLKNSSQ	–	binds
GAL4 BD fusion of PDF1 (protein, UniProt Q38950 1-587) MSMIDEPLYPIAVLIDELKNDDIQLRLNSIRRLSTIARALGEERTRKELIPFLSENNDDDDEVLLAMAEELGVFIPYVGGVEYAHVLLPPLETLSTVEETCVREKAVESLCRVGSQMRESDLVDHFISLVKRLAAGEWFTARVSACGVFHIAYPSAPDMLKTELRSLYTQLCQDDMPMVRRAAATNLGKFAATVESAHLKTDVMSMFEDLTQDDQDSVRLLAVEGCAALGKLLEPQDCVQHILPVIVNFSQDKSWRVRYMVANQLYELCEAVGPEPTRTELVPAYVRLLRDNEAEVRIAAAGKVTKFCRILNPEIAIQHILPCVKELSSDSSQHVRSALASVIMGMAPVLGKDATIEHLLPIFLSLLKDEFPDVRLNIISKLDQVNQVIGIDLLSQSLLPAIVELAEDRHWRVRLAIIEYIPLLASQLGVGFFDDKLGALCMQWLQDKVHSIRDAAANNLKRLAEEFGPEWAMQHIVPQVLEMVNNPHYLYRMTILRAVSLLAPVMGSEITCSKLLPVVMTASKDRVPNIKFNVAKVLQSLIPIVDQSVVEKTIRPGLVELSEDPDVDVRFFANQALQSIDNVMMSS	–	binds weakly
AHG1 fused to the C-terminal half of YFP (enzyme, UniProt Q9FLI3 1-416) MTEIYRTISTGRGDDVSPTKCRERRRRRIEMRRQAAVFGEPSSSRNRDRTDMEVYSSFDVPLRKQARRSEIGGLPADIGGFLAPPAASSCQKSEAPVWKGEETEDEPLYGIVSVMGRSRKMEDSVTVKPNLCKPEVNRQRPVHFFAVYDGHGGSQVSTLCSTTMHTFVKEELEQNLEEEEEGSENDVVERKWRGVMKRSFKRMDEMATSTCVCGTSVPLCNCDPREAAISGSTAVTAVLTHDHIIVANTGDSRAVLCRNGMAIPLSNDHKPDRPDERARIEAAGGRVLVVDGARVEGILATSRAIGDRYLKPMVAWEPEVTFMRRESGDECLVLASDGLWDVLSSQLACDIARFCLREETPSSLDLNRMAQEDDNDGEQNPSRSVLAATLLTRLALGRQSSDNISVVVIDLKNSSQ	binds	–

Results are given in words; binding and its absence hold for the method and conditions named. Binding calls can cover weak binding; strength is not graded here. Tags and fused reporters may be left off the sequences shown. For some of these results: Binding seen in cells or lysates may run through a third protein.
